{"source": "patent US20210228671A1", "about": "“EXTRACT OF VEGETATION WATERS FOR USE IN THE TREATMENT AND/OR IN THE PREVENTION OF PROSTATE CANCER” (FATTORIA LA VIALLA DI GIANNI, ANTONIO E BANDINO LO FRANCO - …, priority 2018, published 2021)", "key": {"DU-145 cells": {"test_system": "DU-145 cells", "assay": "MTT cell viability/proliferation assay", "type": "cell-based, human", "settings": "dilutions 1:10000 to 1:50, 24, 48, 72, 96 h, dose-dependent and time-dependent"}, "PC-3 cells": {"test_system": "PC-3 cells", "assay": "MTT cell viability/proliferation assay", "type": "cell-based, human", "settings": "dilutions 1:10000 to 1:50, 24, 48, 72, 96 h, dose-dependent and time-dependent"}}, "note": "At least one structure is not confirmed: it was looked up by name or label, or the drawing left a doubt."}
{"molecule": "OCCc1ccc(O)c(O)c1", "note": "[hydroxytyrosol]", "values": [{"measurement": "effect on cell proliferation (MTT, optical density)", "setting": "DU-145 cells", "value": "wholly comparable"}, {"measurement": "effect on cell proliferation (MTT, optical density)", "setting": "PC-3 cells", "value": "wholly comparable"}]}
